Laboratory results: PubChem BioAssay AID1224826 (NIAID, 2016)
Aim: 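Regulators of Tlr4 signalling leading to Tnf-alpha expression in macrophages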 (primary screen). Cell system: RAW264.7 G9 macrophages from mouse bearing reporters for p65 (GFP) and the Tnf promoter (mCherry). Reagents: siRNA pool against mouse genes, 100 nM. Timing: 16 h of LPS stimulation, after 2 days of siRNA transfection. Treatment: bacterial lipopolysaccharide (Salmonella minnesota R595), 10 ng/ml. Read-out: 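Nuclear mCherry signal of the Tnf promoter reporter measured by imaging after background removal, scaled to each plate median and turned into robust z-scores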. Direction: Tnf reporter robust z-score: higher = stronger Tnf promoter reporter signal after LPS. Call rule: 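a well counts as active at a score of -1.3 or below (Tlr4 knock-down control median) or above 3 (raised signal); controls and wells holding fewer than 50 cells are excluded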. Calls: active = Tnf reporter clearly lowered or raised; inactive = no clear change in Tnf reporter.
This is an unselected part of about 17,000 deposited reagents. In the full data, about 1,110 (6.6%) were called active. 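Active means lowered or raised reporter signal; replicate intensities are raw and not normalised per plate.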 Not all columns of the deposit are shown. Reagent sequences are not shown.

Gene	Tnf reporter robust z-score	fewer than 50 cells in well	outcome
Rabgap1l (GeneID 29809)	0.35	enough cells in well	inactive
Dnajb4 (GeneID 67035)	3.9	enough cells in well	active
Ark2n (GeneID 212163)	0.17	enough cells in well	inactive
Plpp1 (GeneID 19012)	-1.28	enough cells in well	inactive
Tspo2 (GeneID 70026)	-0.26	enough cells in well	inactive
Tas2r118 (GeneID 387347)	-0.26	enough cells in well	inactive
Pramel32 (GeneID 381590)	-0.18	enough cells in well	inactive
Mcl1 (GeneID 17210)	-1.3	enough cells in well	active
Fbn2 (GeneID 14119)	0.36	enough cells in well	inactive
Cfap95 (GeneID 67483)	2.12	enough cells in well	inactive
Gdpd1 (GeneID 66569)	0.44	enough cells in well	inactive
Tapbp (GeneID 21356)	-0.99	enough cells in well	inactive
Vmn1r36 (GeneID 171184)	2.83	enough cells in well	inactive
Frey1 (GeneID 75641)	7.1	enough cells in well	active
Ints13 (GeneID 71177)	-0.38	enough cells in well	inactive
Scara5 (GeneID 71145)	0.05	enough cells in well	inactive
Wnt10a (GeneID 22409)	-0.05	enough cells in well	inactive
Gimap4 (GeneID 107526)	-0.19	enough cells in well	inactive
Igdcc4 (GeneID 56741)	-1.49	enough cells in well	active
Crygs (GeneID 12970)	0.65	enough cells in well	inactive
Ddx55 (GeneID 67848)	-1.19	enough cells in well	inactive
Accs (GeneID 329470)		fewer than 50 cells per well; well left out of calls	inactive
Asb5 (GeneID 76294)	2.72	enough cells in well	inactive
Vmn1r239-ps (GeneID 100504631)	-0.79	enough cells in well	inactive
Trir (GeneID 68544)	0.26	enough cells in well	inactive
Nkx2-3 (GeneID 18089)	0.44	enough cells in well	inactive
Fam89b (GeneID 17826)	2.12	enough cells in well	inactive
Enam (GeneID 13801)	0.34	enough cells in well	inactive
Glt1d1 (GeneID 319804)		fewer than 50 cells per well; well left out of calls	inactive
Slc7a6 (GeneID 330836)	-0.76	enough cells in well	inactive
Rundc1 (GeneID 217201)	0.31	enough cells in well	inactive
Cdh7 (GeneID 241201)	0.63	enough cells in well	inactive
Plac1 (GeneID 56096)		fewer than 50 cells per well; well left out of calls	inactive
Cdin1 (GeneID 399568)	-0.3	enough cells in well	inactive
Zkscan5 (GeneID 22757)	-0.44	enough cells in well	inactive
Surf1 (GeneID 20930)	0.4	enough cells in well	inactive
Ifna11 (GeneID 15964)	-0.8	enough cells in well	inactive
9530080O11Rik (GeneID 319247)	2.06	enough cells in well	inactive
Znhit2 (GeneID 29805)		fewer than 50 cells per well; well left out of calls	inactive
Bbs7 (GeneID 71492)	1.32	enough cells in well	inactive
Rgr (GeneID 57811)	0.56	enough cells in well	inactive
Smarcd1 (GeneID 83797)	-0.02	enough cells in well	inactive
Rln3 (GeneID 212108)	-0.92	enough cells in well	inactive
Mrpl40 (GeneID 18100)	-0.34	enough cells in well	inactive
Mgat4e (GeneID 71001)		fewer than 50 cells per well; well left out of calls	inactive
Ogfod2 (GeneID 66627)	-0.7	enough cells in well	inactive
Gda (GeneID 14544)	0.01	enough cells in well	inactive
Hoxb4 (GeneID 15412)	-0.65	enough cells in well	inactive
Or9k2 (GeneID 258672)		fewer than 50 cells per well; well left out of calls	inactive
Dbn1 (GeneID 56320)		fewer than 50 cells per well; well left out of calls	inactive
Thap12 (GeneID 72981)	-0.24	enough cells in well	inactive
Awat2 (GeneID 245532)	0.2	enough cells in well	inactive
Bltp3b (GeneID 75089)	0.42	enough cells in well	inactive
Paics (GeneID 67054)	-0.25	enough cells in well	inactive
Glycam1 (GeneID 14663)	-1.74	enough cells in well	active
Pcdhga10 (GeneID 93722)	0.18	enough cells in well	inactive
2900052L18Rik (GeneID 102640779)		fewer than 50 cells per well; well left out of calls	inactive
Pfdn6 (GeneID 14976)	1.9	enough cells in well	inactive
